Assay results published in paper PMC7083229.

Sequences of proteins named here, by UniProt entry; tags and fusion partners are left off.
UniProt Q6NZR5: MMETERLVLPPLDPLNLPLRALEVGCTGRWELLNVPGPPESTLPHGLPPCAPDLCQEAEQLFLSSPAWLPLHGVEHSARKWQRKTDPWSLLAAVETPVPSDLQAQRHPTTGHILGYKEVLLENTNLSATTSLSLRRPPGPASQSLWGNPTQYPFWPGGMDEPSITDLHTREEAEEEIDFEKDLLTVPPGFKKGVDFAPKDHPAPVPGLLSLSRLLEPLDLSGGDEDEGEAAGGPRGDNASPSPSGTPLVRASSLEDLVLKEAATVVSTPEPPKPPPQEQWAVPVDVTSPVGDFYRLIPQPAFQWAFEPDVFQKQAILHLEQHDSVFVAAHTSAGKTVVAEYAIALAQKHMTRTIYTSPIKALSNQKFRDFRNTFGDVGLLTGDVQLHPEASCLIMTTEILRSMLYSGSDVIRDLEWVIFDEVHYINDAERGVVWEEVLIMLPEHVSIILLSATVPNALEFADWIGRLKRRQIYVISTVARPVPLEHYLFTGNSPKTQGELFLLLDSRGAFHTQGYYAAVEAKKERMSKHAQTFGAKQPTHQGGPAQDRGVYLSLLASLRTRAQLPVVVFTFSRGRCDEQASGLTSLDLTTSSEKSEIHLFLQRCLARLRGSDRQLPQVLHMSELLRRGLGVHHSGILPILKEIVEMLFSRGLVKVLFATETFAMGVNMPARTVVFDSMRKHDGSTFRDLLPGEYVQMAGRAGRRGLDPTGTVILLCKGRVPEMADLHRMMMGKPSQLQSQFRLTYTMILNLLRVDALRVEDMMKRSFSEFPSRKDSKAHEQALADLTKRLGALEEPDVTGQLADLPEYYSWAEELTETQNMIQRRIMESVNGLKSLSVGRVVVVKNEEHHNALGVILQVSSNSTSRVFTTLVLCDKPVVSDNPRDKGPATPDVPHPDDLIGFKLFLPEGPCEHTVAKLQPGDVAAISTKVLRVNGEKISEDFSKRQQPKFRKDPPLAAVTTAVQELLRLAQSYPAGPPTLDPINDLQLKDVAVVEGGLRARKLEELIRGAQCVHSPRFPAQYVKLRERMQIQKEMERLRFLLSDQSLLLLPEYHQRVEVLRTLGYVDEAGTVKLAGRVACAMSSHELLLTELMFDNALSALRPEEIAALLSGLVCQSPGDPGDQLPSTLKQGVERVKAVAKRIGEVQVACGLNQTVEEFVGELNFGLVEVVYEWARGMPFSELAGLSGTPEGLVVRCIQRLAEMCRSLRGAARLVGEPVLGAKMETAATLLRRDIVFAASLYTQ
UniProt A2AKG8: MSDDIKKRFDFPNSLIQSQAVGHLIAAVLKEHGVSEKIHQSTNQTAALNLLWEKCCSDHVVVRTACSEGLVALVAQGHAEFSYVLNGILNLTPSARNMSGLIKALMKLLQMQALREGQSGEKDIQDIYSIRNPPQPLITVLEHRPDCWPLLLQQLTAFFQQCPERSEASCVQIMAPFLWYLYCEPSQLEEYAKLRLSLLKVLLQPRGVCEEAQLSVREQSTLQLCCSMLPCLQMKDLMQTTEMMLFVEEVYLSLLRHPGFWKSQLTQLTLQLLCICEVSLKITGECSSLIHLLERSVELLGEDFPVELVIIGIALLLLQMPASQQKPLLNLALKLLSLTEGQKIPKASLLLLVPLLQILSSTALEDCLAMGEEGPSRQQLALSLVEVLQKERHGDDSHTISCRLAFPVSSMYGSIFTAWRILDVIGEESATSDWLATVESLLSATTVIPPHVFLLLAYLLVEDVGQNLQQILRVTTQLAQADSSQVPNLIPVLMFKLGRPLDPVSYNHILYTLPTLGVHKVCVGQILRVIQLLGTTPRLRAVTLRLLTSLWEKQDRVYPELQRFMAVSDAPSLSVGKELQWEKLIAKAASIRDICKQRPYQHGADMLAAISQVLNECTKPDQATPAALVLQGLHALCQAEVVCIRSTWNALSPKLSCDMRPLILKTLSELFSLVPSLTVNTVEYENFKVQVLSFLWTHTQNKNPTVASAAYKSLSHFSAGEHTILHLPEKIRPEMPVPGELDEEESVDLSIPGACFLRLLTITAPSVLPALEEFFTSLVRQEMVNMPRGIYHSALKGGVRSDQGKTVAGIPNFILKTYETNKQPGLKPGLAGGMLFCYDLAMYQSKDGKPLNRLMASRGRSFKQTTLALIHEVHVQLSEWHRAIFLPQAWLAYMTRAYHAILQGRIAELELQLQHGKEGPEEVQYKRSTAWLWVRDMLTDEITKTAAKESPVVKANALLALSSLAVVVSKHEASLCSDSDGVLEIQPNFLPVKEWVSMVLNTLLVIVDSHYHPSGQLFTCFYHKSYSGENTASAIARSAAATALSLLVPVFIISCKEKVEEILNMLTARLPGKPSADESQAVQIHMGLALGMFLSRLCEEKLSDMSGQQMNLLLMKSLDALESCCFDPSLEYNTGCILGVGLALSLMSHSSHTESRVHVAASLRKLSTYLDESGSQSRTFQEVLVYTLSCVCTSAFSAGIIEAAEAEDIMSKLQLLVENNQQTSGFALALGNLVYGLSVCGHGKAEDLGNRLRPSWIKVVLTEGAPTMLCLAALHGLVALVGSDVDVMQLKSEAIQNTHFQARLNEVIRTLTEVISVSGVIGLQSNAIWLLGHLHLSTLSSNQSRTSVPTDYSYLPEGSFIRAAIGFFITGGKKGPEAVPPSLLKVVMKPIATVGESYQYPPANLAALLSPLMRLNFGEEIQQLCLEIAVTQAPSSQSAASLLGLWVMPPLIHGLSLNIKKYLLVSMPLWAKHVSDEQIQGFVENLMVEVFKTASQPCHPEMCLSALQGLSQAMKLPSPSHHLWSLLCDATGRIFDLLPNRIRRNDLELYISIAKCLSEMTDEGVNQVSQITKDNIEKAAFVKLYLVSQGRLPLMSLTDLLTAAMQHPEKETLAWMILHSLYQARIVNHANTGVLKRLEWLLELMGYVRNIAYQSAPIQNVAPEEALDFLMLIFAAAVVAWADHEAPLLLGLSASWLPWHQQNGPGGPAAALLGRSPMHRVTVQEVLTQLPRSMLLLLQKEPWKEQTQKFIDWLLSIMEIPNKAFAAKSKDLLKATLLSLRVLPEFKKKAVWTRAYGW

Experiments:
[1] = target: T1, 3xFLAG-Avi-tagged AVEN (mouse (endogenous in mESCs)) (UniProt Q9D9K3); assay: affinity purification with mass spectrometry; single-step streptavidin pull-down of the biotinylated 3xFLAG-Avi bait from total mESC lysate; 150 mM KCl, 0.5% NP-40, benzonase and RNase A; untagged mESCs as control; three technical replicates
T1 sequence (chain, biotin on the AviTag (BirA ligase expressed in the cells)): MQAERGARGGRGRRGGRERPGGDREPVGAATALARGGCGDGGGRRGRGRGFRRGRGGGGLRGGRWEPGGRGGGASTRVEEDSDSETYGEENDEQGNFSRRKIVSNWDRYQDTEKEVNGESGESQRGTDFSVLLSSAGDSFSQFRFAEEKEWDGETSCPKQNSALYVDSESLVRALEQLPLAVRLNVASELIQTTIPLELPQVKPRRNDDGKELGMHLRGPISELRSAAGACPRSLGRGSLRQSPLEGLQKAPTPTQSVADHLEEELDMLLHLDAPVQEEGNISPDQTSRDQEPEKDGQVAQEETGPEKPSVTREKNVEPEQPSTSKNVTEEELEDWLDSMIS

[2] = target: T1, 3xFLAG-Avi-tagged AVEN (mouse (endogenous in mESCs)); assay: condition: only higher salt concentration (350 mM KCl); affinity purification with mass spectrometry; high-salt tandem FLAG-streptavidin purification of the 3xFLAG-Avi bait from mESC lysate; lysis buffer with 350 mM KCl, RNase treatment; untagged mESCs as control
[3] = target: 3xFLAG-Avi-tagged SKIV2L (mouse (endogenous in mESCs)) (UniProt Q6NZR5); assay: affinity purification with mass spectrometry; tandem FLAG-streptavidin purification of the 3xFLAG-Avi bait from mESC lysate; 150 mM KCl, benzonase and RNase A; untagged mESCs as control; three technical replicates
[4] = target: T1, 3xFLAG-Avi-tagged AVEN (mouse (endogenous in mESCs)); assay: affinity purification with mass spectrometry; high-salt tandem FLAG-streptavidin purification of the 3xFLAG-Avi bait from mESC lysate; lysis buffer with 350 mM KCl, RNase treatment; untagged mESCs as control

- binding [1]: binds
- binding [2]: no binding
Molecule: SKIV2L (from UniProt Q6NZR5 1-1244) (enzyme)

- binding [1]: binds
- binding [2]: no binding
Molecule: TTC37 (mouse (endogenous in mESCs))

- binding [3]: binds
- binding [1]: binds
- binding [4]: binds
Molecule: FOCAD (from UniProt A2AKG8 1-1798)

- binding [3]: binds
B1: AVEN (protein, UniProt Q9D9K3 1-342)
chain: T1 sequence (chain, biotin on the AviTag (BirA ligase expressed in the cells))

No constants are given. Whether binding was seen depends on the method and setting. In cells and extracts the contact can be indirect. Here binding means that the protein was enriched with, or labelled near, the bait; the list need not be complete. For some assays here: No binding means not detected with the bait. For some assays here: Where a sequence is shown, tags or fusion partners need not be part of it. One block for each molecule: values may come before it.
